Experimental findings from patent publication US20050147720A1, “Method of analyzing protein” (priority 2002, published 2005) are described below.

This data set in a line: Molecular weight range of detectable protein: calibration curve by dot blotting-fluorescence staining. As to conditions: each protein diluted in place of BSA of Example 1, FIG. 5.
For the substance insulin, the “minimum limit of detection” value was found to be 0.1 ppm. Turning to lysozyme, the “minimum limit of detection” value is on record as 0.1 ppm. Under oxidized insulin B chain stands 0.2 ppm; under ubiquitin, 0.1 ppm.
